# In the supplement of paper PMC6411743:
# ± gives the standard deviation of the averaged measurements. The list shows a part of the results.
# Target: T1, GBP1 (UniProt P32455)
# T1 sequence (whole entry): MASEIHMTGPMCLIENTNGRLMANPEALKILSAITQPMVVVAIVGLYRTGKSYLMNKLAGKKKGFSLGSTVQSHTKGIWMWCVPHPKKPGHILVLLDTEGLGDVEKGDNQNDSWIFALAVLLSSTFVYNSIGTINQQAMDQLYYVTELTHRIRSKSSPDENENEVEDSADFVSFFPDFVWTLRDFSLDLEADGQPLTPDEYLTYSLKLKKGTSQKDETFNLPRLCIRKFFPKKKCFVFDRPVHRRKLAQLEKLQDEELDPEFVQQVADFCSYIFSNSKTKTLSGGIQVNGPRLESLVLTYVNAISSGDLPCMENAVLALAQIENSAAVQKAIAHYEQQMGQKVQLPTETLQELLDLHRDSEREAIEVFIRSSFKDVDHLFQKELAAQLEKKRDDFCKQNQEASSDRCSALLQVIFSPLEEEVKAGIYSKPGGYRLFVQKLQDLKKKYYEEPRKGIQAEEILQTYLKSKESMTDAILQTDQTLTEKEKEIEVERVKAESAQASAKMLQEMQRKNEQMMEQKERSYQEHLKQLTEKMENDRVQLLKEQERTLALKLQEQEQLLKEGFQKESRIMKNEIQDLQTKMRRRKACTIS
# Assay: NP40-soluble protein abundance relative to vehicle (solubility fold change) (ratio); higher = more soluble protein in presence of GTP
# Protocol: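 Solubility proteome profiling in Jurkat crude lysate. Lysate was treated with Mg-GTP (0.1-10 mM) for 10 min at room temperature and 3 min at 37 °C, then solubilised with 0.8% NP40 and benzonase, followed by ultracentrifugation. Proteins were quantified by TMT10 LC-MS/MS; the value is the NP40-soluble abundance relative to the NP40-processed vehicle, from 3 independent experiments.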
structure (smiles),measurement,setting,value
Nc1nc2c(ncn2[C@@H]2O[C@H](COP(=O)(O)OP(=O)(O)OP(=O)(O)O)[C@@H](O)[C@H]2O)c(=O)[nH]1 [guanosine triphosphate],NP40-soluble protein abundance,concentration: 0.1mM,0.953 ± 0.071
same,NP40-soluble protein abundance,concentration: 0.5mM,0.946 ± 0.069
same,NP40-soluble protein abundance,concentration: 1mM,0.927 ± 0.065
same,NP40-soluble protein abundance,concentration: 2mM,0.89 ± 0.079
same,NP40-soluble protein abundance,concentration: 4mM,0.873 ± 0.077
same,NP40-soluble protein abundance,concentration: 6mM,0.877 ± 0.091
same,NP40-soluble protein abundance,concentration: 8mM,0.91 ± 0.067
same,NP40-soluble protein abundance,concentration: 10mM,0.883 ± 0.085
